Experimental data as given in patent publication EP0311616B1, “COMBINATIONS OF GAMMA INTERFERONS AND ANTI-INFLAMMATORY OR ANTI-PYRETIC AGENTS FOR TREATING DISEASES” (BIOGEN, INC., priority 1986, dated 1987).
At least one compound was matched to its structure with a doubt left.

Tested on: BL/MEX6 human melanoma
Experiment: six day Subrenal Capsule Assay, tumor xenograft implanted under the renal capsule of normal immunocompetent mice
Type: in vivo
Settings: Examples 1-3; compared to vehicle treated control or to the single agents
Description: In each example, following the standardized protocol for the Subrenal Capsule™ Assay [A.E. Bogden, P.M. Haskell, D.J. LePage, D.E. Kelton, W.R. Cobb, H.J. Esber, "Growth Of Human Tumor Xenografts Implanted Under The Renal Capsule Of Normal Immunocompetent Mice", Exp. Cell Biology, 47, pp. 281-93 (1979)], we implanted BL/MEX6 human melanoma established in serial transplantation (Bogden Laboratories) under the renal capsule of normal, immunocompetent mice (BALB/c × DBA/2) F₁ (CDF₁) (Examples 1 and 2) and into (B6C3F₁) mice (Example 3). Each mouse weighed approximately 25 grams. We then divided the mice into treatment groups as follows: group 1: 10 mice, groups 2-7: 8 mice each. […]
In each example, for each mouse, we recorded initial body weight, implanted a tumor and recorded an initial in situ tumor measurement (two diameters) in ocular micrometer units (omu). […] Survivors were recorded and any mice dying prior to sacrifice were necropsied. On day 6, the mice were sacrificed, final body weights were recorded, implanted kidneys were removed and final in situ tumor measurements were made to determine tumor growth inhibition or regression. We calculated the ratio of average final body weight to initial body weight (FBW/IBW) to monitor systemic toxicity. Change in (Δ) tumor size between day of sacrifice (day 6) and day of tumor implant (day 0) was calculated individually and for each group.

CN(C)/N=N/c1[nH]cnc1C(N)=O [DTIC, dacarbazine]
inhibition of tumor growth: also inhibited tumor growth
